{"source": "paper PMC5931576", "about": "“Allosteric modulation of the farnesoid X receptor by a small molecule” (Scientific Reports, 2018)", "tested_on": "ATM", "details": "20 µM"}
{"smiles": "Cc1ccc(NC(=O)c2ccc(CN3CCN(C)CC3)cc2)cc1Nc1nccc(-c2cccnc2)n1", "note": "[compound 4, imatinib, reference compound]", "values": [{"measurement": "Activity on ATM", "value": "no activity"}]}
